Results taken from publication PMC2850929.
No constants are given. Whether binding was seen depends on the method and setting. In cells and extracts the contact can be indirect. Some binding calls cover weakened binding; strength is not graded here. Where a sequence is shown, tags or fusion partners need not be part of it.

Protein sequences, listed by entry. Tags and fused reporters are not part of them.
UniProt P01106: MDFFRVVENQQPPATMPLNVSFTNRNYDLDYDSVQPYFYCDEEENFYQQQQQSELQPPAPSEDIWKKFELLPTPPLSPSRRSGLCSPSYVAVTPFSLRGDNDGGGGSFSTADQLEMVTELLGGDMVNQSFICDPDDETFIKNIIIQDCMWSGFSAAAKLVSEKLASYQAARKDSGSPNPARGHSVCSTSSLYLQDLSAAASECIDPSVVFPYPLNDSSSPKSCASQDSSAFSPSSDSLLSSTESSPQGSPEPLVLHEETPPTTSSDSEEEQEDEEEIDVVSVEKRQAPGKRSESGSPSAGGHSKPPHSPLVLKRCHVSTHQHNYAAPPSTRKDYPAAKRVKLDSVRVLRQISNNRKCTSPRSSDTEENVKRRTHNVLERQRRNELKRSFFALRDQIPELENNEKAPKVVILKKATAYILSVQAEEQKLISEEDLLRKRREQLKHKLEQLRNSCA

Biological target: c-myc (UniProt P01106)
Test: co-IP; HeLa cells transiently transfected with V5cdr2 and c-myc, arrested in G1/S or G2/M; extracts immunoprecipitated with anti-c-myc (C3956) or control anti-HA, blotted with anti-V5

- binding: binds
B1: V5cdr2 (V5-tagged cerebellar-degeneration-related antigen-2) (protein, UniProt Q01850 1-454)
chain: MLAENLVEEFEMKEDEPWYDHQDLQQDLQLAAELGKTLLDRNTELEDSVQQMYTTNQEQLQEIEYLTKQVELLRQMNEQHAKVYEQLDVTARELEETNQKLVADSKASQQKILSLTETIECLQTNIDHLQSQVEELKSSGQGRRSPGKCDQEKPAPSFACLKELYDLRQHFVYDHVFAEKITSLQGQPSPDEEENEHLKKTVTMLQAQLSLERQKRVTMEEEYGLVLKENSELEQQLGATGAYRARALELEAEVAEMRQMLQSEHPFVNGVEKLVPDSLYVPFKEPSQSLLEEMFLTVPESHRKPLKRSSSETILSSLAGSDIVKGHEETCIRRAKAVKQRGISLLHEVDTQYSALKVKYEELLKKCQEEQDSLSHKAVQTSRAAAKDLTGVNAQSEPVASGWELASVNPEPVSSPTTPPEYKALFKEIFSCIKKTKQEIDEQRTKYRSLSSHS
